Results as given in publication PMC6449863 (Frontiers in Chemistry, 2019).

Experiment: general procedure: Fmoc solid-phase peptide synthesis; Rink Amide MHBA resin (100–200 mesh; loading 0.5 mmol/g); DIC/HOAt/iPr2NEt
Settings: whole synthesis, acetate salt; for final HPLC purity: scale of the general procedure 0.100 mmol; for isolated mass / isolated yield: scale 0.100 mmol

Substance	final HPLC purity	isolated mass	isolated yield
PEPTIDE1{[ac].[Aib].I.D.N.[Aib].W.R.K.[Aib].Q.[am]}$$$$V2.0	>99%	25 mg	20%
PEPTIDE1{[ac].[Aib].W.D.N.[Aib].W.R.K.[Aib].W.[am]}$$$$V2.0	99%	41 mg	30%
PEPTIDE1{[ac].I.D.N.E.W.R.K.T.Q.[am]}$$$$V2.0	>99%	6 mg	12%
PEPTIDE1{[ac].W.D.N.E.W.R.K.T.W.[am]}$$$$V2.0	97%	22 mg	16%
Ac-Trp-(αMe)Asp- Asn-(αMe)Asp- Trp- Arg-Api-Thr-Trp-amide	>99%	18 mg	13%
Ac-Api-Trp-As p -Asn-(αMe)Asp- Trp- Arg -Api-T hr -Trp- amide	>99%	11 mg	7%

HELM strings list residues between dots; [ac] is acetyl, [am] amide, other brackets name non-standard units.
